{"source": "PubChem BioAssay AID248", "about": "(DTP/NCI, 2004)", "tested_on": "L1210 leukemia ip in BDF1 mice, survival T/C", "test": "NCI In Vivo Anticancer Drug Screen. Data for tumor model L1210 Leukemia (intraperitoneal) in B6D2F1 (BDF1) mice", "details": "T/C endpoint: mean survival time, higher T/C = longer survival", "key": {"[1]": {"details": "dose: 400.0 mg/kg/injection, schedule: Q01DX001 (ip), vehicle: carboxymethylcellulose (CMC)"}, "[2]": {"details": "dose: 200.0 mg/kg/injection, schedule: Q04DX003 (ip), vehicle: saline with Tween-80"}}, "note": "The list does not hold the whole screen: it gathers tests that were run many times, whatever their T/C, doses with no T/C, and many T/C values between a quarter and a half above the control. Other doses and runs of a compound stand elsewhere. T/C is the treated group as % of the vehicle group. Some doses have a count of surviving animals in place of a T/C: the source holds a T/C of zero for them, seemingly a mark for toxic or unscored doses. Some doses without a T/C left all or most animals alive at the check, yet need not have been tolerated: the source hardly ever lists a survival T/C far under the control, and the zero likely stands for such cases as well. Counts of survivors are from the toxicity check (mostly the fifth day) where no day follows; animals may have died later. Schedules are NCI's codes, read here as Q, the interval in days (D) or hours (H), X, the number of doses. Some schedule codes hold Z or #, which are not explained here. Some structures stand for samples that the source files as different forms (salt, stereo form or complex); doses refer to the form tested. Where survival is the endpoint, this PubChem deposit counts one and a half times the control or more as active, and values a quarter to a half above the control carry no call in these data; other NCI protocols may use other cut-offs. Some doses were run more than once; their values stand side by side, smallest first. Brackets with × give the number of equal values in this list. Some T/C values are followed by the survivors on the day toxicity was checked, most often the fifth; where none is given, no animal had died by that day.", "data": [{"smiles": "COc1ccc(OC(C)=O)c(C=O)c1", "values": [{"measurement": "survivor count", "setting": "[1]", "result": "0 of 4"}]}, {"smiles": "Nc1ncnc2c1c(Br)cn2C1OC(CO)C(O)C1O", "note": "(configuration not stated)", "values": [{"measurement": "survivor count", "setting": "dose: 10.0 mg/kg/injection, schedule: Q01DX001 (ip), vehicle: carboxymethylcellulose (CMC)", "result": "3 of 6"}, {"measurement": "survivor count", "setting": "dose: 20.0 mg/kg/injection, schedule: Q01DX001 (ip), vehicle: carboxymethylcellulose (CMC)", "result": "0 of 6"}, {"measurement": "survivor count", "setting": "dose: 40.0 mg/kg/injection, schedule: Q01DX001 (ip), vehicle: carboxymethylcellulose (CMC)", "result": "0 of 6"}, {"measurement": "survivor count", "setting": "dose: 50.0 mg/kg/injection, schedule: Q01DX001 (ip), vehicle: carboxymethylcellulose (CMC)", "result": "0 of 4"}, {"measurement": "survivor count", "setting": "dose: 80.0 mg/kg/injection, schedule: Q01DX001 (ip), vehicle: carboxymethylcellulose (CMC)", "result": "0 of 6"}, {"measurement": "survivor count", "setting": "dose: 100.0 mg/kg/injection, schedule: Q01DX001 (ip), vehicle: carboxymethylcellulose (CMC)", "result": "0 of 4"}, {"measurement": "survivor count", "setting": "dose: 200.0 mg/kg/injection, schedule: Q01DX001 (ip), vehicle: carboxymethylcellulose (CMC)", "result": "0 of 4"}, {"measurement": "survivor count", "setting": "[1]", "result": "0 of 4"}]}, {"smiles": "CC[CH2][Pb]([CH2]CC)([CH2]CC)[O]C(=O)C(Cl)(Cl)Cl", "values": [{"measurement": "survivor count", "setting": "dose: 12.5 mg/kg/injection, schedule: Q01DX009 (ip), vehicle: Klucel (hydroxypropylcellulose) (HPC)", "result": "6 of 6"}, {"measurement": "survivor count", "setting": "dose: 18.0 mg/kg/injection, schedule: Q01DX009 (ip), vehicle: Klucel (hydroxypropylcellulose) (HPC)", "result": "2 of 6"}, {"measurement": "survivor count", "setting": "dose: 25.0 mg/kg/injection, schedule: Q04DX002 (ip), vehicle: Klucel (hydroxypropylcellulose) (HPC)", "result": "1 of 3"}, {"measurement": "survivor count", "setting": "dose: 28.0 mg/kg/injection, schedule: Q01DX009 (ip), vehicle: Klucel (hydroxypropylcellulose) (HPC)", "result": "0 of 6"}, {"measurement": "survivor count", "setting": "dose: 40.0 mg/kg/injection, schedule: Q01DX009 (ip), vehicle: Klucel (hydroxypropylcellulose) (HPC)", "result": "0 of 6"}, {"measurement": "survivor count", "setting": "dose: 50.0 mg/kg/injection, schedule: Q04DX002 (ip), vehicle: Klucel (hydroxypropylcellulose) (HPC)", "result": "0 of 3"}, {"measurement": "survivor count", "setting": "dose: 100.0 mg/kg/injection, schedule: Q04DX002 (ip), vehicle: Klucel (hydroxypropylcellulose) (HPC)", "result": "3 of 3"}, {"measurement": "survivor count", "setting": "dose: 200.0 mg/kg/injection, schedule: Q04DX002 (ip), vehicle: Klucel (hydroxypropylcellulose) (HPC)", "result": "2 of 3"}, {"measurement": "survivor count", "setting": "dose: 400.0 mg/kg/injection, schedule: Q04DX002 (ip), vehicle: Klucel (hydroxypropylcellulose) (HPC)", "result": "0 of 3"}]}, {"smiles": "CCCCCCCCCCCCCCCCCc1nc2nc(Cl)c(Cl)nc2[nH]1", "values": [{"measurement": "survivor count", "setting": "[2]", "result": "6 of 6"}]}, {"smiles": "S=P1(c2ccccc2)Nc2ccccc2N1c1ccccc1", "note": "(configuration not stated)", "values": [{"measurement": "survivor count", "setting": "dose: 400.0 mg/kg/injection, schedule: Q04DX002 (ip), vehicle: DMSO", "result": "1 of 3"}]}, {"smiles": "NC(N)=N/N=C\\c1c[nH]c2ccccc12", "values": [{"measurement": "survivor count", "setting": "dose: 120.0 mg/kg/injection, schedule: Q01DX Z (ip), vehicle: carboxymethylcellulose (CMC)", "result": "2 of 6"}]}, {"smiles": "CCCCC(C)(C)COc1nc(OCC(C)(C)CCCC)nc(OCC(C)(C)CCCC)n1", "values": [{"measurement": "survivor count", "setting": "dose: 160.0 mg/kg/injection, schedule: Q04DX002 (ip), vehicle: saline with Tween-80", "result": "3 of 3"}, {"measurement": "survivor count", "setting": "[2]", "result": "6 of 6"}]}, {"smiles": "Oc1ccccc1C1CC2CCC1C2", "note": "(configuration not stated)", "values": [{"measurement": "survivor count", "setting": "dose: 200.0 mg/kg/injection, schedule: Q01DX009 (ip), vehicle: saline with Tween-80", "result": "5 of 6"}, {"measurement": "survivor count", "setting": "dose: 400.0 mg/kg/injection, schedule: Q01DX009 (ip), vehicle: saline with Tween-80", "result": "0 of 6"}]}, {"smiles": "CC(C)=CCC1=C(O)c2ccccc2C(=O)C1=O", "values": [{"measurement": "survivor count", "setting": "dose: 1.0 mg/kg/injection, schedule: Q01DX Z (ip), vehicle: water", "result": "6 of 6"}, {"measurement": "T/C", "setting": "dose: 8.33 mg/kg/injection, schedule: Q#B X027 (ip), vehicle: water", "result": "127 % of control"}, {"measurement": "T/C", "setting": "dose: 33.33 mg/kg/injection, schedule: Q#B X027 (ip), vehicle: water", "result": "125 % of control"}, {"measurement": "T/C", "setting": "dose: 50.0 mg/kg/injection, schedule: Q01DX Z (ip), vehicle: water", "result": "94 (2×), 100, 148 % of control"}, {"measurement": "T/C", "setting": "dose: 56.0 mg/kg/injection, schedule: Q01DX009 (ip), vehicle: other", "result": "96, 98, 101, 107 % of control"}, {"measurement": "survivor count", "setting": "dose: 100.0 mg/kg/injection, schedule: Q01DX015 (ip), vehicle: water", "result": "2 of 6"}, {"measurement": "T/C", "setting": "dose: 100.0 mg/kg/injection, schedule: Q01DX Z (ip), vehicle: water", "result": "94, 96 (2×), 137 % of control"}, {"measurement": "T/C", "setting": "dose: 100.0 mg/kg/injection, schedule: Q#B X027 (ip), vehicle: water", "result": "133 % of control [5 of 6 alive]"}, {"measurement": "survivor count", "setting": "dose: 133.33 mg/kg/injection, schedule: Q#B X027 (ip), vehicle: water", "result": "0 of 6"}, {"measurement": "survivor count", "setting": "dose: 133.33 mg/kg/injection, schedule: Q#B X027 (sc), vehicle: water", "result": "1 of 6"}, {"measurement": "survivor count", "setting": "dose: 200.0 mg/kg/injection, schedule: Q01DX015 (ip), vehicle: water", "result": "0 of 6"}, {"measurement": "survivor count", "setting": "dose: 200.0 mg/kg/injection, schedule: Q#A X Z (ip), vehicle: water", "result": "3 of 6"}, {"measurement": "survivor count", "setting": "dose: 200.0 mg/kg/injection, schedule: Q#B X027 (oral), vehicle: water", "result": "2 of 6"}, {"measurement": "survivor count", "setting": "dose: 200.0 mg/kg/injection, schedule: Q#B X027 (sc), vehicle: water", "result": "0 of 6"}, {"measurement": "survivor count", "setting": "dose: 266.67 mg/kg/injection, schedule: Q#B X027 (oral), vehicle: water", "result": "1 of 6"}, {"measurement": "survivor count", "setting": "dose: 350.0 mg/kg/injection, schedule: Q01DX015 (ip), vehicle: water", "result": "0 of 6"}, {"measurement": "survivor count", "setting": "dose: 375.0 mg/kg/injection, schedule: Q#A X018 (oral), vehicle: other", "result": "3 of 6"}, {"measurement": "survivor count", "setting": "dose: 400.0 mg/kg/injection, schedule: Q01DX Z (ip), vehicle: water", "result": "0 of 6"}, {"measurement": "survivor count", "setting": "dose: 500.0 mg/kg/injection, schedule: Q#A X018 (oral), vehicle: other", "result": "1 of 6"}, {"measurement": "survivor count", "setting": "dose: 530.0 mg/kg/injection, schedule: Q01DX015 (ip), vehicle: water", "result": "0 of 6"}, {"measurement": "survivor count", "setting": "dose: 750.0 mg/kg/injection, schedule: Q#A X018 (oral), vehicle: other", "result": "0 of 6"}, {"measurement": "survivor count", "setting": "dose: 800.0 mg/kg/injection, schedule: Q01DX015 (ip), vehicle: water", "result": "0 of 6"}]}]}
